Experimental data from PubChem BioAssay (NCATS).
Several values for one entry are separate records, joined by “and”; a condition that tells them apart may be missing. Equal entries are not always repeated. This is one part of the list. Further columns of the screen follow, without active or inactive calls. The list favours compounds with an active or inconclusive main result. For some of these results: The note in brackets gives the kind of curve behind each potency; many fits are weak.

Legend:
[1] = Validation of Assay for Modulators of Lamin A Splicing (AID 1459); details: Lamin A splicing dual RFP/GFP fluorescence reporter, ratio
Summary of the method: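 Splicing correction is reported by an EGFP-containing lamin A minigene in stably transfected S3 HeLa cells, while DsRed2 controls for viability and nonspecific signal. Cells are exposed to compounds for 48 hrs before the GFP over RFP ratio is taken.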

[2] = qHTS Assay for Lipid Storage Modulators (AID 1519); details: Drosophila S3 cells, BODIPY lipid droplet/cell ratio, laser cytometry, cells loaded with oleic acid
Summary of the method: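 Cells seeded at 5,000 per well were treated with compounds over a concentration series and loaded with oleic acid (400 uM, as added). Lipid droplet fluorescence (488 nm excitation, 500-530 nm channel) was read by laser-scanning cytometry and normalized to 20 uM Triacsin C.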

[3] = qHTS Assay for Modulators of Human Peripheral Myelin Protein 22 (PMP22) Expression/Activity (AID 1967); details: Cell-based PMP22 reporter, dual-color luciferase ratio
Summary of the method: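 Quantitative HTS in a mouse Schwann cell line expressing dual click beetle luciferases: Pmp22 promoter (green) and control EF-alpha promoter (red). After 24h treatment, corrected green/red signal ratio gave %Activity relative to untreated cells.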

[4] = Nrf2 qHTS screen for inhibitors: Validation (AID 493153); details: A549 ARE-Fluc reporter, 18-24 h; AC50: CellTiter-Fluor fluorescence read, measured here: cytotoxicity CellTiter-Fluor AC50; viability change: measured here: cytotoxicity max response
Summary of the method: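 A549 cells carrying ARE-firefly luciferase reporter, 5000 cells/well in 5% FBS OPTI-MEM, treated with compound over a concentration series for 18-24 h at 37 C. Luciferase luminescence gave Nrf2 activity; CellTiter-Fluor fluorescence gave viability.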

[5] = qHTS Validation Assay to Find Inhibitors of Chronic Active B-Cell Receptor Signaling (AID 485345); details: ABC-DLBCL cells, chronic BCR signaling reporter
Summary of the method: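 Read-out: ratio of filter-corrected green (IkappaBalpha fusion) to red (native) luciferase signal in doxycycline-induced TMD8 cells after 4 h at 37C. Titration spanned 46 uM–3 nM; Data were normalised to basal cells and 10 uM MG-132 wells.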

[6] = A High-Content qHTS Against Drug Library for the Identification of Small Molecules that Inhibit DYT1 Early Onset Primary Dystonia-Associated Cell Pathology (AID 1645839); details: HEK293 Flp-In EGFP-delE TorsinA, punctate imaging, 48 h; measured here: cell count cytotoxicity
Summary of the method: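 In this high-content image screen, delE TorsinA mislocalization in inducible Flp-In 293 cells is scored as %pathology, with cell count serving as the counterscreen. Compound exposure lasts 48 h under tetracycline induction in reduced-serum medium.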

[7] = measured here: cell count channel max response
[8] = measured here: lipid channel max response
[9] = measured here: green reporter channel AC50, mouse Pmp22 promoter in mouse Schwann cells
[10] = measured here: red reporter channel AC50, EF-alpha promoter control reporter in MSC80 mouse Schwann cells
[11] = measured here: CBG/CBR ratio read-out
[12] = measured here: CBR control luciferase (viability counter)

CCCCCC(O)c1cccc(OCc2ccc3ccccc3n2)c1 (stereo unspecified)
AC50 ([1]; measured here: GFP channel): 31.6 µM [falling, single point] | AC50 ([1]; measured here: RFP channel): 31.6 µM [falling, single point] | max response [2, 7]: -25.1% | AC50 ([2]; measured here: cell number channel AC50): 7.08 µM [falling, full curve, poor fit] | AC50 ([2]; measured here: lipid (BODIPY) channel AC50): 7.94 µM [falling, full curve, poor fit] | max response [2, 8]: -30.9% | AC50 [3, 9]: 75.7 µM [falling, partial curve, poor fit] | AC50 [3, 10]: 75.7 µM [falling, partial curve, poor fit] | viability change [4]: 0.811%

Nc1nc(Cl)nc2c1ncn2[C@@H]1O[C@H](CO)[C@H](O)[C@H]1O
AC50 ([1]; measured here: GFP channel): 25.1 µM [falling, single point] | AC50 ([1]; measured here: RFP channel): 20 µM [falling, single point] | max response [2, 7]: 40.9% | max response [2, 8]: 38.6% | AC50 [3, 9]: 19 µM [falling, full curve] | AC50 [3, 10]: 16.9 µM [falling, full curve]

CSc1ccc2c(c1)C(N1CCN(C)CC1)Cc1ccccc1S2 (stereo unspecified)
AC50 ([1]; measured here: GFP channel): 35.5 µM [falling, single point] | AC50 ([1]; measured here: RFP channel): 25.1 µM [falling, single point] | AC50 [3, 9]: 21.3 µM [falling, full curve] | AC50 [3, 10]: 19 µM [falling, full curve] | AC50 [5, 11]: 20.6 µM [falling, single point] | AC50 [5, 12]: 14.6 µM [falling, partial curve] | AC50 [6]: 10 µM [falling, partial curve]

C=C1C(=O)O[C@@H]2[C@H]3O[C@]3(C)CCC=C(C)CC[C@@H]12
AC50 ([1]; measured here: GFP channel): 17.8 µM [falling, partial curve] | AC50 ([1]; measured here: RFP channel): 12.6 µM [falling, partial curve] | max response [2, 7]: 26.3% and 56.6% | max response [2, 8]: -92.3% and 57% | AC50 [3, 9]: 42.6 µM [falling, full curve] | AC50 [3, 10]: 37.9 µM [falling, full curve] | AC50 [5, 11]: 3.66 µM [falling, full curve] | AC50 [5, 12]: 6.51 µM [falling, full curve] | viability change [4]: -11.9%
